# At least one peptide structure holds a part that was inferred or is arguable (an end, a ring closure or a residue). Where no end group is shown, it is not given here.
# How the values were obtained:
# [1] = test system: primary cortical neuron cultures; assay: LDH activity assay in H2O2-exposed primary cortical neuron cultures; assay type: cell-based, Sprague-Dawley rats; details: SN 1 μg/mL prior to H2O2 incubation; vs control
# [2] = test system: primary cortical neuron cultures; assay: MAP-2+ cell quantification in primary cortical cultures under H2O2 toxic conditions; assay type: cell-based, Sprague-Dawley rats; details: vs vehicle control
# caspase-3 [3] = assay: Fluorometric caspase-3 activity in H2O2-treated primary cortical cultures; assay type: cell-based, Sprague-Dawley rats; details: 10 μg/L SN, 10^−5 mol/L H2O2 for 24 hours; vs control cells
# [4] = test system: phosphorylated Stat-3, ERK1/2, p38, JNK, Akt, Bcl-2, Bcl-xL, Bax, and Bad; assay: Western blot of apoptosis-related proteins in primary cortical cells; assay type: cell-based, Sprague-Dawley rats
# cerebral ischemia [5] = assay: Behavioral assessments after cerebral ischemia (MCA ligation, CCA clamping); assay type: in vivo, Sprague-Dawley rats
# cerebral ischemia [6] = assay: Infarction volume by TTC staining after cerebral ischemia; assay type: in vivo, rats; details: three days after ischemia, n=8, mean±SEM
# cerebral ischemia [7] = assay: Immunostaining of Neu-N and MAP-2 in penumbric region; assay type: in vivo; details: penumbric region surrounding ischemic cores; vs vehicle-treated rats
# caspase-3 [8] = assay: Caspase-3 immunoreactivity and apoptosis-related protein Western blot in ischemic brain; assay type: in vivo; details: vs control rats
# cerebral ischemia [9] = assay: BrdU labeling of stem cell homing to ischemic brain; assay type: in vivo; details: BrdU pulse labeling; n=8 vs saline control rats
# cerebral ischemia [10] = assay: Double immunofluorescence of BrdU+ cells with cell type-specific markers; assay type: in vivo; details: ischemic cortical areas; vs saline-treated rats
# cerebral ischemia [11] = assay: FITC-dextran perfusion and CD31 blood vessel density assay; assay type: in vivo, rats; details: n=6 vs control
# cerebral ischemia [12] = assay: Macrophage/microglial (MA/MI) count around vessels; assay type: in vivo; details: ischemic hemispheres; vs control rats
# β1-integrin = β1-integrin Western blot and cyclic RGD peptide blocking in ischemic brain; assay type: in vivo, rats
# cerebral ischemia [13] = assay: rCBF by laser doppler flowmetry after acetazolamide; assay type: in vivo; details: after 50 mg/kg acetazolamide ip; n=6 vs control rats
# cerebral ischemia [14] = assay: Cerebral ischemia in c-kit mutant mice (W/W^ν) and normal littermates: BrdU labeling and H&E infarct volume; assay type: in vivo
# [15] = one hour after SN treatment, vs control cells
# [16] = SN 4 μg intracerebrally, vs control rats
# [17] = synthetic cyclic RGD peptide (1 μg/ml) added to SN, vs control rats
sequence,measurement,setting,value
"TNEIVEEQYTPQSLATLESVFQELGKLTGPNNQ [SN, secretoneurin]",LDH activity,[1],significantly reduced
same,density of MAP-2+ cells,[2]; SN 1 μg/mL pre-treatment,significantly increased
same,MAP-2 immunreactive cell density,"[2]; SN 1 μg/mL with inhibitors LY294002 and PD98059, 10^−4 mol/mL H2O2-treated cells",could not increased
same,caspase-3 activity,caspase-3 [3],significantly lower
same,H2O2-induced reduction of anti-apoptotic protein expression such as Bcl-2,"[4]; SN pretreatment, H2O2-treated primary cortical neurons",considerably inhibited
same,"ratio of p-Akt/Actin protein, peak level increase",[4]; [15],two-fold
same,"ratio of p-ERK1/2/Actin protein, peak level increase",[4]; [15],two-fold
same,expression level of JNK,[4]; treated vs control cells,no statistically significant differences
same,expression level of p38,[4]; treated vs control cells,no statistically significant differences
same,ratio of grip strength,"cerebral ischemia [5]; 28 days after treatment, vs control group",higher
same,body asymmetry,"cerebral ischemia [5]; SN 4 μg intracerebrally, three days after cerebral ischemia, vs controls",significantly reduced
same,locomotor activity: number of vertical movements,cerebral ischemia [5]; [16],significantly were high
same,locomotor activity: vertical activity,cerebral ischemia [5]; [16],significantly were high
same,locomotor activity: vertical movement time,cerebral ischemia [5]; [16],significantly were high
same,average total infarction volume,cerebral ischemia [6],73±17 mm^3
same,infarcted slices,cerebral ischemia [6],3.1±0.5 slices/rat
same,largest infarction area,cerebral ischemia [6],9.4±3.3 mm^2
same,number of cells positive for MAP-2,cerebral ischemia [7],significantly higher
same,number of cells positive for Neu-N,cerebral ischemia [7],significantly higher
same,expression of antiapoptotic protein Bcl-2,caspase-3 [8]; Western blot,significantly more
same,expression of antiapoptotic protein Bcl-xL,caspase-3 [8]; Western blot,significantly more
same,cells expressing activated caspase-3,"caspase-3 [8]; penumbra surrounding ischemic cores, 8 hours after MCA ligation",few
same,BrdU immunoreactive cells,cerebral ischemia [9],significantly increased
same,"BrdU+ cells co-expressing GFAP+, Neu-N+ and MAP-2+",cerebral ischemia [10],more
same,cerebral microvascular perfusion with FITC-dextran,cerebral ischemia [11],significantly enhanced
same,blood vessel density by CD31 immunoreactivity (neovasculatures),cerebral ischemia [11]; penumbric area,significantly more
same,MA/MI around the vessels,cerebral ischemia [12],significantly more
same,β1-integrin expression level,β1-integrin; n=4 vs control rats,higher
same,infarcted size,β1-integrin; [17],no significant difference
same,β1-integrin expression,β1-integrin; [17],no significant difference
same,rCBF of the MCA cortex of ischemic brain,cerebral ischemia [13],significant increase
same,average infarcted volume,"cerebral ischemia [14]; H&E staining, SN treated NL mice vs W/W^ν mice",significantly smaller
same,BrdU immunoreactive cells,"cerebral ischemia [14]; SN-treated NL mice (n=6) compared with W/W^ν mice (n=6), SN 2 μg intracerebrally",significantly increased
